Experimental data published in PMC6736360, “P-Glycoprotein–Mediated Efflux Reduces the In Vivo Efficacy of a Therapeutic Targeting the Gastrointestinal Parasite Cryptosporidium” (The Journal of Infectious Diseases, 2019).

Test: Caco-2 trans-well apparent permeability assay
Type: in vitro ADME
Settings: human, pH 7.4
Procedure: To initially characterize the permeability of BKIs 1294, 1369, and 1318, the software MedChem Designer (Simulations +, Lancaster, CA) was used to predict the Peff. The in vitro apparent permeability (Papp) was carried out by Absorption Systems LP (Exton, PA) with a Caco-2 trans-well assay. Caco-2 cells (clone C2BBe1) were obtained from American Type Culture Collection (Manassas, VA) were grown to confluence on collagen-coated, microporous membranes in 12-well assay plates. The permeability assay buffer was Hanks’ balanced salt solution (HBSS) containing 10 mM HEPES and 15 mM glucose at a pH of 7.4. The buffer in the receiver chamber also contained 1% bovine serum albumin. […] The Papp was calculated with equation (1) and the percent recovery with equation (2). […]
where dCr/dt is the slope of the cumulative concentration in the receiver compartment versus time in µM s^-1; Vr is the volume of the receiver compartment in cm^3; Vd is the volume of the donor compartment in cm^3; A is the area of the insert (1.13 cm^2 for 12-well); CA is the average of the nominal dosing concentration and the measured 120 minute donor concentration in µM; CN is the nominal concentration of the dosing solution in µM; Cr^final is the cumulative receiver concentration in µM at the end of the incubation period; Cd^final is the concentration of the donor in µM at the end of the incubation period. […]

Papp at 120 min (Caco-2 assays, read-out: Observed Papp of controls): ≤ 0.05 ×10⁻⁶ cm/s | Papp A→B at 120 min, 5 µM (Caco-2, 5 µM, 120 minutes): 0.21 ×10⁻⁶ cm/s
Structure (SMILES): CC(C)NCC(O)COc1ccc(CC(N)=O)cc1 (centres unmarked) [Atenolol, reference compound]
